No constants are given. Whether binding was seen depends on the method and setting. Binding seen in cells or lysates may run through a third protein. A yes stands for co-enrichment or nearness to the bait. Other partners may have been found.
Target: Flag-SOX2 (human) (UniProt P48431)
Assay: affinity purification with mass spectrometry

Amino acid sequences for entries named in this document (tags omitted).
UniProt P48431: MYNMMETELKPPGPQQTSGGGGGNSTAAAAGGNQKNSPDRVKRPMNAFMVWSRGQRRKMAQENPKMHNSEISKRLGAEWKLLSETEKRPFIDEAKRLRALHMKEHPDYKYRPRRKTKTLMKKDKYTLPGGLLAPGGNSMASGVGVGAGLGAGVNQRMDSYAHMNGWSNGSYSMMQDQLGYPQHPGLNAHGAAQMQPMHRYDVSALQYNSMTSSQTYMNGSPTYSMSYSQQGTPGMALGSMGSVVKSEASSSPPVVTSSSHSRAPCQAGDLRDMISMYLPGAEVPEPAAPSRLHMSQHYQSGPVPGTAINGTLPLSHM
UniProt Q93009: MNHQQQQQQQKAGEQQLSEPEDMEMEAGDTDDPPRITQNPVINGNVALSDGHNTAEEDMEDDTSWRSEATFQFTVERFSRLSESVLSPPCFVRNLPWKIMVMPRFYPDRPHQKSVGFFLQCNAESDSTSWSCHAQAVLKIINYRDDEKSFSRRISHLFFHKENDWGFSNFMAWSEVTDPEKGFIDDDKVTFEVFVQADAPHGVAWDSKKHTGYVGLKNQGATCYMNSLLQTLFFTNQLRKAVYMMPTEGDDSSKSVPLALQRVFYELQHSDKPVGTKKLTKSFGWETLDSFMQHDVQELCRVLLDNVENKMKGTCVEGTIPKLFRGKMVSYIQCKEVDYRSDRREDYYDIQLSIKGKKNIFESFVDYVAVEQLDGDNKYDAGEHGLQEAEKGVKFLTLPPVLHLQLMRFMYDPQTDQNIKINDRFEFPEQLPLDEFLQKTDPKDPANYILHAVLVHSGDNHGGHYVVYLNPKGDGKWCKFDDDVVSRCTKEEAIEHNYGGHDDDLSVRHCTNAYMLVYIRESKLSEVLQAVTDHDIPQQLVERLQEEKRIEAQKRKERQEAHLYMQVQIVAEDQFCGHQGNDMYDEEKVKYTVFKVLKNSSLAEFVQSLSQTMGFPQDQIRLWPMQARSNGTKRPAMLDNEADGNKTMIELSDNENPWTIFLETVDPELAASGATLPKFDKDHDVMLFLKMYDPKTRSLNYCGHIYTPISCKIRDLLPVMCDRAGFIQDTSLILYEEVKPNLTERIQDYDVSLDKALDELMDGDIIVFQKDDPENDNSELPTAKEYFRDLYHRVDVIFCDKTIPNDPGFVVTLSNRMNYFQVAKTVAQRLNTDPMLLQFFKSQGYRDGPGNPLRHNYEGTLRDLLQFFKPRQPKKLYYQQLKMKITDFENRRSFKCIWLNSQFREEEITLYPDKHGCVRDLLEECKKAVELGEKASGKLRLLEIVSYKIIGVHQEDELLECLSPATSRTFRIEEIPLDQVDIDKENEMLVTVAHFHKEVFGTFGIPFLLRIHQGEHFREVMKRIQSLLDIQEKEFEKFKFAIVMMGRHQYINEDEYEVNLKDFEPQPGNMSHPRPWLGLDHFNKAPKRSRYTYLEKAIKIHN

HAUSP (Herpesvirus-Associated Ubiquitin-Specific Protease) (from UniProt Q93009 1-1102) (enzyme)
binding: binds
